These are yes or no findings as the source states them, for the method shown. Binding seen in cells or lysates may run through a third protein. Binding calls can cover weak binding; strength is not graded here.

The chains behind the UniProt entries cited, without tags or fusion partners. Where a name states a change or a piece, a line headed by the entry shows the natural chain unless it says otherwise.
UniProt A0R561: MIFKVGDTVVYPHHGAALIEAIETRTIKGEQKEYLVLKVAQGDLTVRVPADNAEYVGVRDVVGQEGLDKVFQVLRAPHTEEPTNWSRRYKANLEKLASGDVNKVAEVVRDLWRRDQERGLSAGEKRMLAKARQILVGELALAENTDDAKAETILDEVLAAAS
UniProt A0R4G8: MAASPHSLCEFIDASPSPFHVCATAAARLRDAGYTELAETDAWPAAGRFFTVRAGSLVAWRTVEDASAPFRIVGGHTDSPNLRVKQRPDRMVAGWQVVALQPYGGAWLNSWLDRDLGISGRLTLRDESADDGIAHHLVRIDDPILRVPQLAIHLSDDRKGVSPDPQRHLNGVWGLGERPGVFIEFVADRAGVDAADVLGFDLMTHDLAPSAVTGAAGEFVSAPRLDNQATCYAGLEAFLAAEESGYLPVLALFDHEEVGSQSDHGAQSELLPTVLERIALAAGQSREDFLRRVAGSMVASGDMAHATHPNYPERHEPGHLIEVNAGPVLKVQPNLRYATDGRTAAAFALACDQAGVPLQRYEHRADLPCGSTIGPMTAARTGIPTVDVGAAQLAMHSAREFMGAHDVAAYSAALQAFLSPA

This experiment deals with CarD–gFLAG (FLAG-tag sequence inserted into the M. smegmatis genome at the carD locus) (M. smegmatis) (UniProt A0R561). The experiment is described as follows: co-IP; FLAG pull-down: M. smegmatis lysates (2–4 mg protein; exponential and stationary phase; for RNAP-FLAG also after crsL knock-down) with M2 anti-FLAG resin 16–18 h at 4°C in 20 mM Tris–HCl pH 7.9, 150 mM KCl, 1 mM MgCl2; SDS–PAGE, silver stain, bands identified by MALDI-FTICR MS and/or western blot. A general note: In western blotting, separated proteins are transferred to a membrane and probed.

Turning to “ApeB (MSMEG_5828), putative protease homologous of M. tuberculosis PepC (from UniProt A0R4G8)”, the binding entry is reported as “binds”.

These data come from PMC12709188.
